Experimental data taken from the supplement of paper PMC12823440, “Inhibitors supercharge kinase turnover through native proteolytic circuits” (Nature, 2025).
Some of the results follow. Hit calls seldom repeat between salt and free forms of one compound.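 Kinases were expressed as nanoluciferase fusions in K562 cells and luminescence was read every 4 h between 2 and 18 h as percent of control, DMSO set to 100% and a positive control to 0%. A time point counts as decreased when the signal drops significantly (2 sigma). The hit call is the authors' own, does not follow from the count of time points alone, and its rule is not shown.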

The chains behind the UniProt entries cited, without tags or fusion partners. Where a name states a change or a piece, a line headed by the entry shows the natural chain unless it says otherwise.
UniProt Q9UM73: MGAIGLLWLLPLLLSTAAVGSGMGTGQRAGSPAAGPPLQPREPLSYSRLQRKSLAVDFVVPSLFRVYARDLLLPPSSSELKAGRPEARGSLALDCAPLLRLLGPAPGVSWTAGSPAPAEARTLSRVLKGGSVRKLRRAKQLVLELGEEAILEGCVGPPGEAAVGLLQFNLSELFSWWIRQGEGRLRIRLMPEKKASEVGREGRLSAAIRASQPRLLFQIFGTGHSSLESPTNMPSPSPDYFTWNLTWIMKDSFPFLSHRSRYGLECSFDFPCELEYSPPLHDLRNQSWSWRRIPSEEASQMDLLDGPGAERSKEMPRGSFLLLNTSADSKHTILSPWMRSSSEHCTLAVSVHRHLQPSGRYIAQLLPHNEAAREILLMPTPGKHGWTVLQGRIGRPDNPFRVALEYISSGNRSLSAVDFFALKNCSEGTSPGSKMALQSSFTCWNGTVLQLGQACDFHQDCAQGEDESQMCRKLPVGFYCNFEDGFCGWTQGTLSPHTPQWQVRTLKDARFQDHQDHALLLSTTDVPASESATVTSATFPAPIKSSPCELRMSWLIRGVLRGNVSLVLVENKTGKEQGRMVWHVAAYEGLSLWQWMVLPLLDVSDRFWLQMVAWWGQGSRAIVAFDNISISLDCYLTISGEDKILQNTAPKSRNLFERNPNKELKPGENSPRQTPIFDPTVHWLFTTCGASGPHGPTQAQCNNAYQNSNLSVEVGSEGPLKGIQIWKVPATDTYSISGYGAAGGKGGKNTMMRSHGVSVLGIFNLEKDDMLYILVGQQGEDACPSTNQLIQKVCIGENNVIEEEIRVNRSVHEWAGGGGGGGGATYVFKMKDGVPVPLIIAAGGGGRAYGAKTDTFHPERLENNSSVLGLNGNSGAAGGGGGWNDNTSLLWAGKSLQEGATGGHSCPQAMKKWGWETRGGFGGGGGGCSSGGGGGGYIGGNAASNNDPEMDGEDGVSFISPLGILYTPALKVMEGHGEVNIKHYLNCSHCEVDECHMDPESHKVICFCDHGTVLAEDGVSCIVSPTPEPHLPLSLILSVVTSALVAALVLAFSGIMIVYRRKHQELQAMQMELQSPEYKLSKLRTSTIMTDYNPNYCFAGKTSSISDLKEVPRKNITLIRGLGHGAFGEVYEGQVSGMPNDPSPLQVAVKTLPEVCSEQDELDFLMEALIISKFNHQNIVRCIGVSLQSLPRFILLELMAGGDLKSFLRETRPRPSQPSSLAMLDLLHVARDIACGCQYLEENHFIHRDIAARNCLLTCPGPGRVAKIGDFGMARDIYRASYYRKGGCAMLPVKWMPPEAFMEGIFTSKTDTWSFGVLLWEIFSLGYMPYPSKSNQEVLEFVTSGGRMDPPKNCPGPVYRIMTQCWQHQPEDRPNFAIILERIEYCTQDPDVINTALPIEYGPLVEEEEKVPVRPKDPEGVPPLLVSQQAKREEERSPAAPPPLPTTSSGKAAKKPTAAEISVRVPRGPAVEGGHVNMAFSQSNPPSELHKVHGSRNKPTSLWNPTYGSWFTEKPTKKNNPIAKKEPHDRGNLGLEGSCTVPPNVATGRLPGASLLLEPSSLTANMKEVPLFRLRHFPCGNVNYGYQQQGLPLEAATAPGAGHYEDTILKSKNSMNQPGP
UniProt P10398: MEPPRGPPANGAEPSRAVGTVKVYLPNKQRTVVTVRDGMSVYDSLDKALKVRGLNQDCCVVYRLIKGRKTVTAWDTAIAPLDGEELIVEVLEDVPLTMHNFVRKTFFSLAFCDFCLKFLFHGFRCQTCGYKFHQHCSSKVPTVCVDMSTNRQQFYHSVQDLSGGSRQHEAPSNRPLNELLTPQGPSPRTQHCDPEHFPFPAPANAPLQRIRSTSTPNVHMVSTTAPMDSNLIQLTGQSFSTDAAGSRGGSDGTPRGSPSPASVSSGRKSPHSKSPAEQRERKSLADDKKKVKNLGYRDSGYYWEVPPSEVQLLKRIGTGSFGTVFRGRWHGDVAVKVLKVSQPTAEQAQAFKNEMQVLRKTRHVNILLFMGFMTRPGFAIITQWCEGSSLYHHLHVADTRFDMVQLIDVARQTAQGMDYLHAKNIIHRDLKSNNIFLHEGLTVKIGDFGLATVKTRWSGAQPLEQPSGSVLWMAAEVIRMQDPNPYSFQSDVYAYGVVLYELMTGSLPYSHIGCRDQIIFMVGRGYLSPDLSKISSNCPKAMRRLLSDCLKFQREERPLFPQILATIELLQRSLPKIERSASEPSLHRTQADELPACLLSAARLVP
UniProt O14965: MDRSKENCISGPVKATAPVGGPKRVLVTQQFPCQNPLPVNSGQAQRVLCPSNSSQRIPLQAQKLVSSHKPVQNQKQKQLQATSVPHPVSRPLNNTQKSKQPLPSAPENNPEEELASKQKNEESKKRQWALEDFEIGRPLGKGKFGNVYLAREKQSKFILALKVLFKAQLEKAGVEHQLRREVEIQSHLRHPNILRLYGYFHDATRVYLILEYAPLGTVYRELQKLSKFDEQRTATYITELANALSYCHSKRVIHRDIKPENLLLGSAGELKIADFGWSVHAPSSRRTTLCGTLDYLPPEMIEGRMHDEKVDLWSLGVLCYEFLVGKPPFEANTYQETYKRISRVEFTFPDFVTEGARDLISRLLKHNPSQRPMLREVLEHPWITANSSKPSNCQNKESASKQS
UniProt Q96GD4, whole entry: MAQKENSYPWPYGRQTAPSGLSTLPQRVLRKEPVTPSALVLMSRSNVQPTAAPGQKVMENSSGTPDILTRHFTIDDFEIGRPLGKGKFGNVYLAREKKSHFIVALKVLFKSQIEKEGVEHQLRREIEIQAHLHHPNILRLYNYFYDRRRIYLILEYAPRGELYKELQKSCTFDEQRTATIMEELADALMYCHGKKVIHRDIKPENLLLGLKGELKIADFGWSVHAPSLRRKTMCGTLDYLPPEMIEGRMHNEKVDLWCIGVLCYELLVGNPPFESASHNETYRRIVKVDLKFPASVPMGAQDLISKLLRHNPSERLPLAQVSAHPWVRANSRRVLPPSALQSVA
UniProt Q9UQB9: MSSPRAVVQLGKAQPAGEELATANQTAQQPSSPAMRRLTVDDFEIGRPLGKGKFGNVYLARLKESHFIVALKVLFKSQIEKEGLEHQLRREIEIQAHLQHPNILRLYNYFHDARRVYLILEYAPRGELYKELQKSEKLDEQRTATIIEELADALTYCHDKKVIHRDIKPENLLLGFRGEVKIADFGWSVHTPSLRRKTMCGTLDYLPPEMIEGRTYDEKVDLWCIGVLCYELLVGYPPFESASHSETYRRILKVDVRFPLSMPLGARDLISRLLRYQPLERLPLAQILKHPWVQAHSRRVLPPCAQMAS
UniProt P51451: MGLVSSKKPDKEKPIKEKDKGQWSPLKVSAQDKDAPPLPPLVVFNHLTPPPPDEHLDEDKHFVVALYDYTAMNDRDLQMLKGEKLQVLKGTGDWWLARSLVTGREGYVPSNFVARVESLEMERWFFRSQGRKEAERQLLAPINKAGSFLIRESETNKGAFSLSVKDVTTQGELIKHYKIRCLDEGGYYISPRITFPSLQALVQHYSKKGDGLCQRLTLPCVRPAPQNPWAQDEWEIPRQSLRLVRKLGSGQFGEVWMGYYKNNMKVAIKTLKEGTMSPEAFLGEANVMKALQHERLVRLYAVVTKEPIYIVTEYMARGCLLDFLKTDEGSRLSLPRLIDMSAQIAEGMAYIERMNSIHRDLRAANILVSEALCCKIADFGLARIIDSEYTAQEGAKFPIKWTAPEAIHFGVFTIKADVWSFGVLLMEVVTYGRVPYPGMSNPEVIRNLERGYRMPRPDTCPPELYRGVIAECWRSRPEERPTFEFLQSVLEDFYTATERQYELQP
UniProt P51813: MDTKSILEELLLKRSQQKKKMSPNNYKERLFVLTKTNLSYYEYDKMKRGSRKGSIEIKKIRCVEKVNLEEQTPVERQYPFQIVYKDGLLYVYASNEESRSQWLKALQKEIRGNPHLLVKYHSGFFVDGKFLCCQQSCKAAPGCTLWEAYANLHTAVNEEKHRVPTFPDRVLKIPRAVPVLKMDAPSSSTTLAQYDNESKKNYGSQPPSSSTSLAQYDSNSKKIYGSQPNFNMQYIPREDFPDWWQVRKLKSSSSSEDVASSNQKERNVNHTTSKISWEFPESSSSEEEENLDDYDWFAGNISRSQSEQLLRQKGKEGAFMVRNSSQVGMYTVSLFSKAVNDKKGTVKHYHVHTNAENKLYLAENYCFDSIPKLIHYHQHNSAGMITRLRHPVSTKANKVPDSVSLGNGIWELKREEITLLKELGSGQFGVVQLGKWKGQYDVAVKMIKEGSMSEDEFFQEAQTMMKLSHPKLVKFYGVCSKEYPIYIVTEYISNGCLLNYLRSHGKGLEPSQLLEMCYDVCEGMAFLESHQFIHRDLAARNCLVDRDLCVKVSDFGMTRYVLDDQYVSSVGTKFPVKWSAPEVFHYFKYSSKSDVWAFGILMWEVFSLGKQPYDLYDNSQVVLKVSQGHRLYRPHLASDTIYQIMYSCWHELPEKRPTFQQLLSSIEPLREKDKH
UniProt P15056, whole entry, looked up: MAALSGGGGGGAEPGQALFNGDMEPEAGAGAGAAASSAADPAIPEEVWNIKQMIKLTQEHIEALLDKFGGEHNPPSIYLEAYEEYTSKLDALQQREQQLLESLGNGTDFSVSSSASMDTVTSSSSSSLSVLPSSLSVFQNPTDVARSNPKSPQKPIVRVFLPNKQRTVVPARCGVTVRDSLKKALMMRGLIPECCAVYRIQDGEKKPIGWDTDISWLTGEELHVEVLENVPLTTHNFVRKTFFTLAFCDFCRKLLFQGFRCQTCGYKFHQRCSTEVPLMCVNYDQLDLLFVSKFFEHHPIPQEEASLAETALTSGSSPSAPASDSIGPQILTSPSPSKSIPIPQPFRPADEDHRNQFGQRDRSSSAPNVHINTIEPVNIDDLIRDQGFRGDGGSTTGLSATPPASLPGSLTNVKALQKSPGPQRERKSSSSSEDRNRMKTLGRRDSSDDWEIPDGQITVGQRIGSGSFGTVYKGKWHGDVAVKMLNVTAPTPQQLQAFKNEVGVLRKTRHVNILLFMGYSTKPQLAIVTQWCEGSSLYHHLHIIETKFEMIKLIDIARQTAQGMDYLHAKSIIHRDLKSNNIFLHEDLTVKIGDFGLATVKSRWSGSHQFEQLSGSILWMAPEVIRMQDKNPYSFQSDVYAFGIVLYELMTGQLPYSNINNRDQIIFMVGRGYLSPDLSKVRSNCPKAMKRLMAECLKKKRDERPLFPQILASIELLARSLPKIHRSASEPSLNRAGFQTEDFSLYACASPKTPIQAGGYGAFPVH
UniProt Q06187: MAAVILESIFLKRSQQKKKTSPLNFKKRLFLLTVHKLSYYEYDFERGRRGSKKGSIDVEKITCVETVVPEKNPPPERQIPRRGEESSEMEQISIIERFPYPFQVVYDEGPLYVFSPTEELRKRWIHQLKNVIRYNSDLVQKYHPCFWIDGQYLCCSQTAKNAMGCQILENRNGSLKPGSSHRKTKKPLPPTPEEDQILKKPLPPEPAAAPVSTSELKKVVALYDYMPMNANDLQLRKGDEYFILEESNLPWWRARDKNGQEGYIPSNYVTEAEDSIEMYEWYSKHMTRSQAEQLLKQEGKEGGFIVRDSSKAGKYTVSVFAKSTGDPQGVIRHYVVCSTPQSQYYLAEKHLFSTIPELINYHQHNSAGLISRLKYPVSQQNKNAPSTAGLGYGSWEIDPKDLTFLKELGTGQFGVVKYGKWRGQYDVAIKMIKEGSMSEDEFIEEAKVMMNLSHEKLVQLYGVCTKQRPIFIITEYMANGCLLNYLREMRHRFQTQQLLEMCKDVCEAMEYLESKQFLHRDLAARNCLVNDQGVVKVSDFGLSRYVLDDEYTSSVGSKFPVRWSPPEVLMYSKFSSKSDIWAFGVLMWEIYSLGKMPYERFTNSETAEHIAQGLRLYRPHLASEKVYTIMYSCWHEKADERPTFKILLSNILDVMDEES

Assays:
Assay in all cases: number of time points (of 5) at which kinase-Nluc abundance scored as decreased, DMSO-normalised (count); higher = more persistent destabilization
Conditions in all cases: K562; 2-18 h
[1] = target: ALK (UniProt Q9UM73)
[2] = target: ARAF (UniProt P10398)
[3] = target: AURKA (UniProt O14965)
[4] = target: AURKB (UniProt Q96GD4)
[5] = target: AURKC (UniProt Q9UQB9)
[6] = target: BLK (UniProt P51451)
[7] = target: BMX (UniProt P51813)
[8] = target: BRAF (UniProt P15056)
[9] = test system: BRAF_V600E
[10] = target: BTK (UniProt Q06187)

| SMILES | number of time points [1] | number of time points [2] | number of time points [3] | number of time points [4] | number of time points [5] | number of time points [6] | number of time points [7] | number of time points [8] | number of time points [9] | number of time points [10] |
| --- | --- | --- | --- | --- | --- | --- | --- | --- | --- | --- |
| C=CC(=O)N1C[C@H](COc2nc(Nc3cnn(C)c3)nc3[nH]cc(Cl)c23)[C@@H](OC)C1 (2.5 µM) | 0 | 0 | 0 | 0 | 0 | 0 | 0 | 0 | 0 | 0 |
| Nc1nc(N)c2nc(-c3cccc(O)c3)cnc2n1 (10 µM) | 0 | 0 | 0 | 0 | 0 | 0 | 0 | 0 | 0 | 0 |
| Nc1c(C(=O)NCc2ccc(C(=O)NCCCC3CCCCC3)cc2)cnn1-c1ccccc1 (2.5 µM) | 0 | 0 | 0 | 0 | 0 | 0 | 0 | 0 | 0 | 0 |
| N#Cc1c2nc3ccccc3nc2n2ccc(NC(=O)c3cccs3)cc12 (10 µM) | 0 | 0 | 0 | 0 | 0 | 0 | 0 | 0 | 0 | 0 |
| Nc1ncnc2c1c(-c1ccc(Oc3ccccc3)cc1)nn2C1CCN(CCOCCOCCOc2ccc3c(c2)CN(C2CCC(=O)NC2=O)C3=O)CC1 (stereo not given) (2.5 µM) | 0 | 0 | 0 | 0 | 0 | 0 | 0 | 0 | 0 | 0 |
| CNc1nc(Nc2cn(C(C)(C)C#N)nc2C)ncc1C(F)(F)F (10 µM) | 0 | 0 | 0 | 0 | 0 | 0 | 0 | 0 | 0 | 0 |
| Oc1cc(O)c2c(c1)OC1(c3ccc(O)c(O)c3)Oc3cc(O)c4c(c3C2C1O)OC(c1ccc(O)c(O)c1)C(O)C4 (stereo not given) [Procyanidin A1] (10 µM) | 0 | 0 | 0 | 0 | 0 | 0 | 0 | 0 | 0 | 0 |
| COc1cc2ncnc(-n3nc(-c4ccccn4)nc3N)c2cc1OC (10 µM) | 0 | 0 | 0 | 0 | 0 | 0 | 4 | 1 | 0 | 0 |
| O=C(Nc1cccc(C(F)(F)F)c1)c1cccc2cc(Oc3cc(CO)ncn3)ccc12 (10 µM) | 0 | 0 | 0 | 0 | 0 | 0 | 0 | 0 | 0 | 0 |
| C=CC(=O)Nc1cc(-n2c(=O)ccc3cnc4ccc(-c5ccc(NS(C)(=O)=O)cc5)cc4c32)ccc1C (10 µM) | 0 | 0 | 0 | 0 | 0 | 0 | 0 | 3 | 0 | 0 |
| Cc1ncc(NC(=O)NC2c3ccccc3-c3ccccc32)c(-c2ccccc2)n1 (10 µM) | 0 | 0 | 0 | 0 | 0 | 0 | 0 | 0 | 0 | 0 |
| CCn1c(=O)c(-c2cc[nH]n2)cc2c(C)nc(N)nc21 [Voxtalisib] (10 µM) | 0 | 0 | 4 | 0 | 0 | 0 | 0 | 0 | 1 | 0 |
| C=C[C@@](C)(/C=C/c1ccc(O)cc1)CCC=C(C)C [Bakuchiol] (10 µM) | 0 | 0 | 0 | 0 | 0 | 0 | 0 | 0 | 0 | 0 |
| COc1ccc(N=Nc2c(N)n[nH]c2N)cc1 (10 µM) | 0 | 0 | 0 | 0 | 0 | 0 | 0 | 0 | 0 | 0 |
| Cn1cnc([N+](=O)[O-])c1C[N+](C)(C)C/C=C/C(=O)Nc1cc2c(Nc3ccc(Cl)c(Br)c3)ncnc2cn1 [Tarloxotinib (bromide)] (10 µM) | 0 | 0 | 0 | 0 | 0 | 0 | 0 | 0 | 0 | 0 |
| COc1ccc2cc3[n+](cc2c1OC)CCc1cc(O)c(O)cc1-3 [Demethyleneberberine] (10 µM) | 0 | 0 | 0 | 0 | 0 | 0 | 0 | 0 | 0 | 0 |
| CCc1cccc(CC)c1NC(=O)N1Cc2[nH]nc(NC(=O)c3ccc(N4CCN(C)CC4)cc3)c2C1 (2.5 µM) | 2 | 0 | 0 | 0 | 0 | 0 | 3 | 2 | 4 | 0 |
| CNc1nc(Nc2ccc(C(=O)N3CCOCC3)cc2OC)ncc1Cl (2.5 µM) | 0 | 0 | 0 | 0 | 0 | 0 | 0 | 0 | 0 | 0 |
| CC(C)=CC(=O)O[C@H]1Cc2cc3ccc(=O)oc3cc2OC1(C)C [Decursin] (10 µM) | 0 | 0 | 0 | 0 | 0 | 0 | 0 | 0 | 0 | 0 |

| SMILES | number of time points [1] | number of time points [2] | number of time points [3] | number of time points [4] | number of time points [5] | number of time points [6] | number of time points [7] | number of time points [8] | number of time points [9] | number of time points [10] |
| --- | --- | --- | --- | --- | --- | --- | --- | --- | --- | --- |
| O=C(NCc1cccc(O)c1)Nc1nc(-c2ccncc2)cs1 (10 µM) | 0 | 0 | 0 | 0 | 0 | 0 | 0 | 0 | 0 | 0 |
| Nc1n[nH]c2nc(-c3ccc(NS(=O)(=O)c4cc(Cl)ccc4F)cc3)cnc12 (10 µM) | 0 | 0 | 0 | 0 | 0 | 0 | 0 | 0 | 0 | 0 |
| O=[N+]([O-])c1ccc2c(c1)S(=O)(=O)C=C2 [Stattic] (2.5 µM) | 0 | 0 | 0 | 0 | 0 | 2 | 4 | 0 | 3 | 0 |
| CC(C)C[C@@H](C(=O)Nc1ccn(C[C@@H](O)CO)n1)N1CC(Oc2ccccc2Cl)=CC1=O [Dorzagliatin] (10 µM) | 0 | 0 | 0 | 0 | 0 | 0 | 0 | 0 | 0 | 0 |
| Cc1cc(Nc2ncnc3ccc(-c4ccc(CNCCS(C)(=O)=O)o4)cc23)ccc1Oc1ccn2ncnc2c1 [ARRY-380 (analog )] (2.5 µM) | 0 | 0 | 0 | 0 | 0 | 0 | 0 | 0 | 0 | 0 |
| O=c1cc(N2CCOCC2)nc2c3ccccc3ccn12 [Compound 401] (10 µM) | 0 | 0 | 0 | 0 | 0 | 0 | 0 | 0 | 0 | 0 |
| O=C1O[C@H]([C@@H](O)CO)C(O)=C1OP(=O)(O)O [2-Phospho-L-ascorbic acid (trisodium)] (10 µM) | 0 | 0 | 0 | 0 | 0 | 0 | 0 | 0 | 0 | 0 |
| Cc1cccc(-c2[nH]c(C(C)(C)C)nc2-c2ccc3nccnc3c2)n1 (10 µM) | 0 | 0 | 0 | 0 | 0 | 0 | 0 | 0 | 0 | 0 |
| CC(=O)N1CCC(c2cc(-c3ccc(NC(=O)c4cccn(-c5ccc(F)cc5)c4=O)cc3F)c3c(N)ncnn23)CC1 (0.5 µM) | 0 | 0 | 0 | 0 | 0 | 0 | 0 | 0 | 0 | 0 |
| Nc1cccc(-c2cc3c(Oc4cccc(O)c4)ncnc3[nH]2)c1 (10 µM) | 2 | 0 | 0 | 0 | 0 | 0 | 1 | 1 | 3 | 0 |
| Cc1ccc(NC(=O)c2ccnc(C(F)(F)F)c2)cc1-c1cc(OCCO)nc(N2CCOCC2)c1 (10 µM) | 0 | 0 | 0 | 0 | 0 | 0 | 0 | 0 | 0 | 0 |
| C[C@@H]1COCCN1c1nc(-c2cnc(N)cc2C(F)F)nc(N2[C@H](C)COC[C@@H]2C)n1 (2.5 µM) | 0 | 0 | 3 | 0 | 0 | 0 | 1 | 0 | 2 | 0 |
| Cc1ccc(Oc2nc3cc(-c4ccc(-c5ccccc5)cc4)c(Cl)cc3[nH]2)cc1C(=O)O (10 µM) | 0 | 0 | 0 | 0 | 0 | 0 | 0 | 0 | 0 | 0 |
| CN(c1ccc(NC(=O)Nc2ccc(OC(F)(F)F)cc2)cc1)c1ccnc(Nc2cccc(S(N)(=O)=O)c2)n1 (2.5 µM) | 2 | 0 | 3 | 1 | 0 | 0 | 3 | 1 | 3 | 1 |
| O=C1/C(=C\c2ccc(Cl)cc2)C=C(c2ccccc2)N1c1ccc(O)cc1 (2.5 µM) | 0 | 0 | 0 | 0 | 0 | 0 | 0 | 0 | 0 | 0 |
| C[C@@H]1CCNC(=O)c2cc3ccc(C(=O)Nc4nc5ccccc5n4CCCN(C)C)cc3n21 (10 µM) | 0 | 0 | 0 | 0 | 0 | 0 | 0 | 0 | 0 | 0 |
| C=CC(=O)Nc1cccc(CNc2nc(Nc3ccc(N4CCN(C)CC4)cc3OC)ncc2Cl)c1 (10 µM) | 0 | 0 | 0 | 0 | 0 | 0 | 0 | 0 | 0 | 0 |
| Cn1cc(-c2c[nH]c3ncnc(N4CCOCC4)c23)cc1C#N (10 µM) | 0 | 0 | 0 | 0 | 0 | 0 | 0 | 0 | 0 | 0 |
| C=CC(=O)Nc1cccc(-c2cccc3cnc(Nc4ccc(N5CCN(CCO)CC5)c(F)c4F)nc23)c1 [Olafertinib] (2.5 µM) | 0 | 0 | 0 | 0 | 0 | 0 | 0 | 0 | 0 | 0 |

By substructure, those above with a nitro group on carbon.

| SMILES | number of time points [1] | number of time points [2] | number of time points [3] | number of time points [4] | number of time points [5] | number of time points [6] | number of time points [7] | number of time points [8] | number of time points [9] | number of time points [10] |
| --- | --- | --- | --- | --- | --- | --- | --- | --- | --- | --- |
| Cn1cnc([N+](=O)[O-])c1C[N+](C)(C)C/C=C/C(=O)Nc1cc2c(Nc3ccc(Cl)c(Br)c3)ncnc2cn1 [Tarloxotinib (bromide)] (10 µM) | 0 | 0 | 0 | 0 | 0 | 0 | 0 | 0 | 0 | 0 |
| O=[N+]([O-])c1ccc2c(c1)S(=O)(=O)C=C2 [Stattic] (2.5 µM) | 0 | 0 | 0 | 0 | 0 | 2 | 4 | 0 | 3 | 0 |
